Consider three molecules from article PMC3828283.

Sequences of proteins named here, by UniProt entry; tags and fusion partners are left off. A change or cut given only in a name is not applied to a line headed by its entry. Residues count along the entry.
UniProt P62136: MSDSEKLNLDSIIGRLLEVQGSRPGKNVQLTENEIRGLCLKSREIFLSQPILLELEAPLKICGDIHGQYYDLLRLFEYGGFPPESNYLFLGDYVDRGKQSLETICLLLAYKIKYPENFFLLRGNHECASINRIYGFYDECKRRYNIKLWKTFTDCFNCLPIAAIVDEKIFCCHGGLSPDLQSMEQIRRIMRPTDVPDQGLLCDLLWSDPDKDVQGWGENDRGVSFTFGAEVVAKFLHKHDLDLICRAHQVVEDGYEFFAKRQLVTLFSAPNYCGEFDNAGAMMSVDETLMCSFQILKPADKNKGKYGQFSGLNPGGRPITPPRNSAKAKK
MBP-PP1 (amino acid 1-187): residues 1-187 of P62136
MBP-PP1 (amino acid 163-330): residues 163-330 of P62136

Numbering of substitutions follows the chain as printed. Results are given in words; binding and its absence hold for the method and conditions named. For some assays here: In cells and extracts the contact can be indirect. Some results given as binding are weak or reduced against the parent protein; the word gives no strength. For some assays here: Tags and fused reporters may be left off the sequences shown.

In test [1] the target is MBP-PP1 (amino acid 163-330) (UniProt P62136). In words: far-Western, overlay or dot blot; purified MBP fusion proteins separated by SDS-PAGE, transferred to nitrocellulose and incubated with GST-PLN or GST-PP1 (aa1-330); probed with anti-GST; both purified.
The target of test [2] is MBP-PP1 (amino acid 1-187) (UniProt P62136). Described as above.
For test [3], the target named is T1, GST-Hsp20 wild type (UniProt O14558).
T1 sequence: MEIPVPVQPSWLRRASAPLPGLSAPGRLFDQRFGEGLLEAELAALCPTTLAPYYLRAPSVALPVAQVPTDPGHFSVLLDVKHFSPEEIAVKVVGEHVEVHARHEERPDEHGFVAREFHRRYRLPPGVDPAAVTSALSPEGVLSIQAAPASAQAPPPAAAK
In words: far-Western, overlay or dot blot; equal amounts of GST-Inhibitor-1 or GST-Hsp20 proteins (wild type or variant, with or without PKA phosphorylation) separated by SDS-PAGE and incubated with MBP-PP1 (aa1-330); detection with MBP antibody; both purified.

Test [4] addresses T2, GST-Inhibitor-1 wild type (human) (UniProt Q13522).
T2 sequence: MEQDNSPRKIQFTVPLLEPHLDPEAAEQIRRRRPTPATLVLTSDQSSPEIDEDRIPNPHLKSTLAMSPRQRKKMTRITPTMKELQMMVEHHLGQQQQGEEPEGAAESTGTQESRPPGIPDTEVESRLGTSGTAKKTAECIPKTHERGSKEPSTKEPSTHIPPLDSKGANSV
The test is described as above.

The target of test [5] is T3, GST-Hsp20 P20L (human) (UniProt O14558).
T3 sequence: T1 sequence with P20L
Described as above.

Test [6] deals with T4, GST-Inhibitor-1 G147D (human) (UniProt Q13522).
T4 sequence: T2 sequence with G147D
The description is as above.

The target in test [7] is T2, GST-Inhibitor-1 wild type (human). As to the kind of experiment: pull-down; GST or GST fusion protein bound to glutathione-Sepharose 4B mixed with 0.5 mg of mouse cardiac homogenates (untreated or treated beforehand with PKA) at 4°C for 16 h; 10 mM NaPO4 pH 7.2, 120 mM NaCl; western blot with PLN or PP1 antibody; only the target purified. In general terms: In western blotting, separated proteins are transferred to a membrane and probed.

Test [8] concerns the target T5, GM of cardiac homogenates (mouse (endogenous in cardiac homogenates)) (UniProt Q99MR9).
T5 sequence: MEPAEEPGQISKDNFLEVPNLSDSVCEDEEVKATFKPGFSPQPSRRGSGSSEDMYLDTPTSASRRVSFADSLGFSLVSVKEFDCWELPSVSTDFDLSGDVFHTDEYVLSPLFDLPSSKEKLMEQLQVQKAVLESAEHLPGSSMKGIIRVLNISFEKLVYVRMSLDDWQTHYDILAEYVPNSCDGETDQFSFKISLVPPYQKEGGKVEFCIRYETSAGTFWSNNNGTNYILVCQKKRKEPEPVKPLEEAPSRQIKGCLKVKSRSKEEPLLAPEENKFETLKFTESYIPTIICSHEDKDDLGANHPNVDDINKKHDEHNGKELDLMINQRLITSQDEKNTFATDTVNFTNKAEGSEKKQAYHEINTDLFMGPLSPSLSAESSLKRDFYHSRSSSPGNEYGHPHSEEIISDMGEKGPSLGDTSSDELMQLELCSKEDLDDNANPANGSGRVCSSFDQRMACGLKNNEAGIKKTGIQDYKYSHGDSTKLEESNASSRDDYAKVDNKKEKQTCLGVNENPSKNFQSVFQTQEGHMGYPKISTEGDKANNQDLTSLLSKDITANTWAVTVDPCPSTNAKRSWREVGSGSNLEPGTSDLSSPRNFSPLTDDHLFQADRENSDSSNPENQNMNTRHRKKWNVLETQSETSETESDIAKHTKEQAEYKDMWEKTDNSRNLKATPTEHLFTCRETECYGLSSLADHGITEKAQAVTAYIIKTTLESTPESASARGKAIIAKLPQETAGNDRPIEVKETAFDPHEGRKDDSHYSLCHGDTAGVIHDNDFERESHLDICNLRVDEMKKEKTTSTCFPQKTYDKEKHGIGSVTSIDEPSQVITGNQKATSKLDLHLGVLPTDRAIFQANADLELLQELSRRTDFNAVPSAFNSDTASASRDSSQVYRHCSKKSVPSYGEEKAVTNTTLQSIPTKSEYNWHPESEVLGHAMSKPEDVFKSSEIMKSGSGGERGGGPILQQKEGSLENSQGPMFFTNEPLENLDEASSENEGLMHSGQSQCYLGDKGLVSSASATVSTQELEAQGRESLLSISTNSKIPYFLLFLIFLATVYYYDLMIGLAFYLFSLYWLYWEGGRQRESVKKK
In words: co-IP; co-immunoprecipitation in PKA or non-PKA treated cardiac homogenates; data not shown.

On to “GST-PLN (amino acids 1-37) (from UniProt P26678 1-37) (domain or fragment)”, for which the binding entry in test [1] and in test [2] was “no binding” each time.
On to “MBP-PP1 (aa1-330) (from UniProt P62136 1-330) (enzyme)”, for which the binding result in test [3], in test [4], in test [5] and in test [6] was “binds” each time.

B1: native PLN protein of cardiac homogenates (protein, UniProt P61014 1-52)
chain: MEKVQYLTRSAIRRASTIEMPQQARQNLQNLFINFCLILICLLLICIIVMLL
Regarding B1, the binding result in test [7] was “no binding”; in test [8], “binds”.
